Measurements as given in patent publication US20210206851A1.
These are yes or no findings as the source states them, for the method shown. Binding calls can cover weak binding; strength is not graded here.

Columns and labels:
[1] = target: endogenous cynomolgus monkey LAG-3 on SEB-stimulated cynomolgus monkey PBMCs (cynomolgus monkey); test: FACS on SEB-stimulated cynomolgus monkey PBMCs, goat-anti human Fc-APC
[2] = target: endogenous cynomolgus monkey LAG-3 on SEB-stimulated cynomolgus monkey PBMCs (cynomolgus monkey); test: flow cytometry; cynomolgus monkey PBMCs, donor Cyno9238385617, SEB 500 ng/mL or unstimulated; detected with goat anti-human Fc-APC; no isotype control shown
[3] = target: endogenous cynomolgus monkey LAG-3 on SEB-stimulated cynomolgus monkey PBMCs (cynomolgus monkey); test: flow cytometry; cynomolgus monkey PBMCs, donor Cyno9153462442, SEB 500 ng/mL or unstimulated; detected with goat anti-human Fc-APC; no isotype control shown

Measured: binding

B1: hLAG-3 mAb 6 (1.1) (antibody, V domains shown)
VH: QVQLVQSGAEVKKPGASVKVSCKASGYTFTDYNMDWVRQAPGQGLEWMGDINPDNGVTIYNQKFEGRVTMTTDTSTSTAYMELRSLRSDDTAVYYCAREADYFYFDYWGQGTTLTVSS
VL: DIQMTQSPSSLSASVGDRVTITCRASQDVSSVVAWYQQKPGKAPKLLIYSASYRYTGVPSRFSGSGSGTDFTLTISSLQPEDFATYYCQQHYSTPWTFGGGTKLEIK
binds: all assays above
